Residue numbers refer to the chain shown, from its start. These are yes or no findings as the source states them, for the method shown. For some of these results: Binding calls can cover weak binding; strength is not graded here. One block for each binder: values may come before it.
Key:
[1] = target: Rhesus LILRB1 (NP_001035762.2) protein (rhesus macaque); experiment: ELISA on rhesus LILRB1 (NP_001035762.2) protein
[2] = target: cynomolgus LILRB2 protein (cynomolgus); experiment: Octet, dissociation rate ranking
[3] = target: cynomolgus LILRB2 overexpressing CHOK1 cell line (cynomolgus); experiment: flow cytometry (FIGS. 3C-3E)
[4] = target: cynomolgus LILRB1 protein (cynomolgus); experiment: ELISA (FIGS. 3A and 3B)
[5] = target: cynomolgus LILRB1 protein (cynomolgus); experiment: ELISA (FIGS. 3A-3B)

binding [1]: no binding
B1: LK-RB1-58 (antibody, human IgG4 S228P, kappa, V domains shown)
VH: QVQLKQSGPGLVQPSQSLSITCTVSGFSLTTYGVHWVRQSPGKGLEWLGVIWRGGSTDYNAAFMSRLSITKDNSKSQVFFRMNSLQADDTARYYCAKNSLYYGSSWYFDVWGTGTTVTVSS
VL: QIVLSQSPAILSASPGEKVTMTCRASSSVSFMHWYQQKPGSSPKPWIYATSNLASGVPARFSGSGSGTSYSLTISRVEAEDAATYYCQQWSSNPPTFGGGTKLEIKR

binding [2]: binds
binding [3]: binds
B2: LK-RB2-32 (antibody, human IgG4 S228P, kappa, V domains shown)
VH: DVQLQESGPGLVKPSQSLSLTCSVTGYSITSGYYWNWIRQFPGNKLEWMGYISFDGSNHYNPSLRNRISITRDTFKNQFFLKLNSVTTEDTATFYCTRRDYNWFAYWGQGTLVTVSA
VL: DIVLTQSPVTLSVTPGDSVSLSCRASQNINKNLHWYQQRSHESPRLLIKYVSQSISGIPSRFSGSGSGTDFTLSINSVETEDFGMYFCQQSNSWPLTFGAGTKLELRR

binding [1]: no binding
B3: LK-RB1-43 (antibody, human IgG4 S228P, kappa, V domains shown)
VH: EFQLQQSGPELMKPGASVKISCKASGYSFTDYNMNWVKQSNGKSLEWIGIIDPNYGTTTYNQKFKGRATLTVDQSSNTAYMQLNSLTSEDSAVYYCAREGRYSWFAYWGQGTLVTVSA
VL: DIQMTQSPGALSVSVGETVTITCRASENINSNLAWYQQKQGKSPQLLVYAATNLADGVPSRFSGSGSGTQYSLKINSLQSEDFGSYHCQHFWGTPFTFGSGTKLEIKR

binding [4]: binds
binding [3]: binds
binding [5]: binds
binding [1]: no binding
B4: hz73D1.v1 (antibody, human IgG4 S228P, kappa, V domains shown)
VH: QVQLVQSGAEVKKPGASVKVSCKASGYTFTDYYINWVRQAPGQGLEWMGNVNPNDGGTTYNQKFKGRVTMTTDTSTSTAYMELRSLRSDDTAVYYCARREIYFYGTIYYYAMDYWGQGTLVTVSS
VL: DIQLTQSPSFLSASVGDRVTITCRASESVDYYGNSFMYWYQQKPGKAPKLLIYFASNLESGVPSRFSGSGSGTEFTLTISSLQPEDFATYYCQQNNEDPWTFGGGTKVEIKR

binding [1]: no binding
B5: LK-RB1-37 (antibody, human IgG4 S228P, kappa, V domains shown)
VH: QVQLQQPGAELVKPGASVKLSCKASGYTFTSYWMHWVKQRPGRGPEWIGRIDPNSGYARYNEKFKNKATLTADKPSSTADMHLSSLTSEDSAVYYCTRSFITTAEWFFDVWGTGTTVTVSS
VL: DILLTQSPAILSVSPGERVSFSCRASQSIGTSIHWYQQRRNGSPRLLIKYTSESISGIPSRFSGSGSGTDFTLSINSVESEDIADYYCQQSNSWPHTFGGGTKLELKR

binding [1]: no binding
B6: LK-RB1-51 (antibody, human IgG4 S228P, kappa, V domains shown)
VH: QVQIQQSGAELVKPGASVKLSCKASGYTFTEFPIHWIKQRSGQGLEWIGWFYPGSDNMNYNEKFKDKATLTADKSSSTVYMELSRLTSEDSAVYFCARHENAYFYAMDYWGQGTSVTVSS
VL: ENVLTQSPAIMSASLGEKVTMSCRASSSVNYMYWYQQKSDASPKIWIYYTSNLAPGVPARFSGSGSGNSYSLTISSMEGEDAATYYCQQFTSSPFTFGTGTKLEIKR

binding [1]: no binding
B7: LK-RB1-54 (antibody, human IgG4 S228P, kappa, V domains shown)
VH: DVQLQESGPGLVKPSQSLSLTCSVTGYSITSGFYWNWIRQFPGNKLEWMGHISYDGTNNYNPSLKNRISITRDTSKNLFFLKLNSVTTEDTATFHCARGGYGGSYGFDYWGQGTTLTVSS
VL: B6 VL with I45L, A59V, F95W, T99G

binding [1]: no binding
B8: LK-RB1-42 (antibody, human IgG4 S228P, kappa, V domains shown)
VH: QVQLQQPGAELVKPGTSVKLSCKASGYSFISYWVYWVKQRPGQGLEWIGMIHPNSGSTNFNEKFRYKATLTVDKSSSTAYIQLSSLTSEDSAVYYCGRSDDGYPYHAMDSWGQGTSVTVSS
VL: DIVMTQSQKFMSTSVGDRVSVTCKASQNVGTNVAWYQQKPGQSPKALIYSASYRFSGVPDRFTGSGSGTDFTLTIGNVQSEDLAEYFCHQYKNYPLTFGGGTKLEIKR

binding [1]: no binding
B9: 15G8 (antibody, human IgG4 S228P, kappa, V domains shown)
VH: DVQLQGSGPGLVKPSETLSLTCSVTGYSITSGYYWNWIRQFPGKKLEWMGYISYDGSNNYNPSLKNRITISRDTSKNQFSLKLNSVTAADTATYYCAHGYSYYYAMDAWGQGTSVTVSS
VL: DIQMTQSPSSLSASVGDRVTITCRTSQDISNYLNWYQQKPGKAVKLLISYTSRLHSGVPSRFSGSGSGTDYTLTISSLQPEDFATYYCQQGNTLPTFGQGTKLEIKR

From patent publication US20260234247A1
